Measurements: paper PMC10981675, “Structural basis for phage-mediated activation and repression of bacterial DSR2 anti-phage defense system” (Nature Communications, 2024)
Numbering of substitutions follows the chain as printed. Results are given in words; binding and its absence hold for the method and conditions named. Some entries that bind do so weakly or less than the wild type.

Tests used:
[1] = target: T1, DSR2 T52A (Bacillus subtilis) (UniProt P0DXN8); assay: tandem affinity co-purification + SEC; His-DSR2 and GST-tube made in E. coli; for wild type the cells expressing each were mixed before lysis; Ni-NTA, then glutathione resin, GST removed with HRV 3C, HiTrap Q, Superdex 200 Increase; mutants purified by the same method
T1 sequence: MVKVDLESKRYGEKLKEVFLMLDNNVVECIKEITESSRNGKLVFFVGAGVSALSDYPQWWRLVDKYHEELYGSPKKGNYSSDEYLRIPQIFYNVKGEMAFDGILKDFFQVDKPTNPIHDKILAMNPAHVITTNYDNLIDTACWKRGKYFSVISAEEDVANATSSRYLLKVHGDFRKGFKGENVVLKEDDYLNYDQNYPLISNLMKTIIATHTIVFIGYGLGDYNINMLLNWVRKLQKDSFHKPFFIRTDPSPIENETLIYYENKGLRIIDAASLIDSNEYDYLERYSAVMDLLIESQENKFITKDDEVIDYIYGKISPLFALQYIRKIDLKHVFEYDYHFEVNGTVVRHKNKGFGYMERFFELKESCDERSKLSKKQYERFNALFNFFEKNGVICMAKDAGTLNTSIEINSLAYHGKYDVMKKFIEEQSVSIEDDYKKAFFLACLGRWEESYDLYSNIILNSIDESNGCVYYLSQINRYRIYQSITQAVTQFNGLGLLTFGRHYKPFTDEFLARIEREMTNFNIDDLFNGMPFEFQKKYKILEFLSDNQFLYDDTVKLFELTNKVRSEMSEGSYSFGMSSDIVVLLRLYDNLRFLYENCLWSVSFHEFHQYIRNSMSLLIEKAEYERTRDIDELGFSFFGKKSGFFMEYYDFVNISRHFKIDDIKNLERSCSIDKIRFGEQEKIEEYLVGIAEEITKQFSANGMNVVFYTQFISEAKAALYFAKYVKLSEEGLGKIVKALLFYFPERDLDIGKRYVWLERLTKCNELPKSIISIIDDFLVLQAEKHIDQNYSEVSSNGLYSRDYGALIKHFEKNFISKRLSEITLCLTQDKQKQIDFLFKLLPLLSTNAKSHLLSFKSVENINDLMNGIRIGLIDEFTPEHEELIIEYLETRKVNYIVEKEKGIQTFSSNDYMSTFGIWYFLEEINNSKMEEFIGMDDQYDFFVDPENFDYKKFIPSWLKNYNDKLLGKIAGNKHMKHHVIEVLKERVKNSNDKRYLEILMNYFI

[2] = target: T2, DSR2 W60A (Bacillus subtilis) (UniProt P0DXN8); assay: as above
T2 sequence: T1 sequence with A52T, W60A

B1: tail tube protein of phage SPR, wild type (natural protein)
chain: MKTVIQDTADVYFKRKSDGKLVFTAEAQTASFSQAISEEKLRGGIGNKPLYILKSEKEINLTVKNAFFDLEWLAMTQGETIQEETKVKVFDREHGLIVDDTNKVTLKGKPVSDVTFYNKKGLTYKIAVSTDGTYTIPTAFAAAKDKLTAVYQIEKVGRRLAIKASKFSERYEVEYRTIAYNPDTEEVYSDIYIQFPNVSPSGEFEMSLENGNALAPEIKFEALADTDTDEMAVVIEASRDENTAAPVEDTTGSTQSSDLGGTTE
notes: tail tube protein of Bacillus phage SPR; domains D1 and D2; GST removal with HRV 3C is told for the DSR2-tube complex; Alone it runs as monomeric and oligomeric species on SEC; Only D1 is seen in the maps; also called phage tail tube protein; source: E. coli BL21 Star (DE3); purified alone, or co-purified with DSR2 (Ni-NTA, glutathione resin, HRV 3C cleavage, HiTrap Q, Superdex 200); not shown: …
With B1 the binding [1] was “binds” and the binding [2] was “binds”.
